From article PMC6541287 (2019) come the findings set out here.

These are yes or no findings as the source states them, for the method shown. Binding can be weak; no strength is given. Tags and fused reporters may be left off the sequences shown.

The target in this assay is T1, recombinant Eh14-3-3 Protein 3 (EhP3) (E. histolytica) (UniProt P42650).
T1 sequence: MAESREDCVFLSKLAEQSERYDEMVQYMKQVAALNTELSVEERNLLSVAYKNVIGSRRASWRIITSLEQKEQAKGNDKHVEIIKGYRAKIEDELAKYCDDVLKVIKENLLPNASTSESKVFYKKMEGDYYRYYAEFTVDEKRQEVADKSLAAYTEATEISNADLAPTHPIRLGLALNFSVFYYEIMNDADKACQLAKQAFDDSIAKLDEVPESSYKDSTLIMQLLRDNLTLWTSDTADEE
Briefly: SPR; Autolab SPR; EhP3 immobilised on NHS/EDC-activated gold surface in HEPES buffer pH 7.4; recombinant actin binding proteins injected at 200 nM, 20 μl/min, reference flow cell, 25°C; both purified. Background: In SPR one partner is held on a chip, and binding of the other changes the refractive index at the surface.
As for recombinant Actophorin (E. histolytica), the binding entry is reported as “no binding (tested: 200 nM)”. In the case of “recombinant EhCoactosin (E. histolytica)” it was “binds”. In the case of recombinant Filamin (E. histolytica) it was “no binding (tested: 200 nM)”; in that of recombinant Profilin A (E. histolytica), “no binding (tested: 200 nM)”. The value for recombinant Profilin B (E. histolytica) was “no binding (tested: 200 nM)”.

Take recombinant Twinfilin (E. histolytica): the binding result is reported as “no binding (tested: 200 nM)”.
